From patent US20250034105A1, “IS[…] N-METHYL-1,3-BENZODIOXOLYLBUTANAMINE (MBDB) AND STEREOISOMERS THEREOF” (Terran Biosciences Inc., priority 2021, published 2025)
At least one compound was matched to its structure with a doubt left.

Tested on: Male Sprague-Dawley rats
Experiment: Rat elevated zero maze model of anxiety
Format: in vivo
Conditions: 6 mg/kg ip, 30 min before 5-min test, vs vehicle
Source text: The rat zero-maze model is a refined alternative to the plus-maze, the most widely used animal model of anxiety, and consists of an elevated annular platform, divided equally into four quadrants. Two opposite quadrants are enclosed by Perspex walls on both the inner and the outer edges of the platform, while the remaining two opposite quadrants are open being enclosed only by a Perspex “lip”. Animals will show a preference for the closed areas, and avoidance of the open sections is assumed to stem from a rodent's natural aversion to open, exposed spaces. A reduction in the amount of activity on the open areas is considered to reflect an increase in anxiety. The ethologically-based behavior stretched attend postures (SAP) from closed to open quadrants is assessed as an index of anxiety. Increase in SAPs is indicative of an anxiogenic effect and decreases in SAPs is indicative of an anxiolytic effect. […]
Subjects were weighed and tail marked before being injected. After a specified pre-treatment time, subjects were placed in a closed quadrant and a 5-min test period were recorded on videotape for subsequent analysis. […] Animals are scored as being in the open area when all four paws were in an open quadrant and in the closed area only when all four paws have passed over the open-closed divide. […]

`CNC1=Nc2ccc(Cl)cc2C(c2ccccc2)=[N+]([O-])C1` [CDP, chlordiazepoxide] was tested, and the “frequency of stretched attend postures (SAPs)” value was “significant reduction in SAPs” and the “percentage of time in the open arms (% TO)” value was “did not show significance over vehicle”.
